Experimental data: patent US20130302322A1
Where a chain is given by its changes, count along the chain named. Results are given in words; binding and its absence hold for the method and conditions named. Some entries that bind do so weakly or less than the wild type. Each block holds one binder with its values, some of them ahead of it.

By UniProt entry, the sequences of proteins in these tests, tags left out. Where a name states a change or a piece, a line headed by the entry shows the natural chain unless it says otherwise.
UniProt P07333: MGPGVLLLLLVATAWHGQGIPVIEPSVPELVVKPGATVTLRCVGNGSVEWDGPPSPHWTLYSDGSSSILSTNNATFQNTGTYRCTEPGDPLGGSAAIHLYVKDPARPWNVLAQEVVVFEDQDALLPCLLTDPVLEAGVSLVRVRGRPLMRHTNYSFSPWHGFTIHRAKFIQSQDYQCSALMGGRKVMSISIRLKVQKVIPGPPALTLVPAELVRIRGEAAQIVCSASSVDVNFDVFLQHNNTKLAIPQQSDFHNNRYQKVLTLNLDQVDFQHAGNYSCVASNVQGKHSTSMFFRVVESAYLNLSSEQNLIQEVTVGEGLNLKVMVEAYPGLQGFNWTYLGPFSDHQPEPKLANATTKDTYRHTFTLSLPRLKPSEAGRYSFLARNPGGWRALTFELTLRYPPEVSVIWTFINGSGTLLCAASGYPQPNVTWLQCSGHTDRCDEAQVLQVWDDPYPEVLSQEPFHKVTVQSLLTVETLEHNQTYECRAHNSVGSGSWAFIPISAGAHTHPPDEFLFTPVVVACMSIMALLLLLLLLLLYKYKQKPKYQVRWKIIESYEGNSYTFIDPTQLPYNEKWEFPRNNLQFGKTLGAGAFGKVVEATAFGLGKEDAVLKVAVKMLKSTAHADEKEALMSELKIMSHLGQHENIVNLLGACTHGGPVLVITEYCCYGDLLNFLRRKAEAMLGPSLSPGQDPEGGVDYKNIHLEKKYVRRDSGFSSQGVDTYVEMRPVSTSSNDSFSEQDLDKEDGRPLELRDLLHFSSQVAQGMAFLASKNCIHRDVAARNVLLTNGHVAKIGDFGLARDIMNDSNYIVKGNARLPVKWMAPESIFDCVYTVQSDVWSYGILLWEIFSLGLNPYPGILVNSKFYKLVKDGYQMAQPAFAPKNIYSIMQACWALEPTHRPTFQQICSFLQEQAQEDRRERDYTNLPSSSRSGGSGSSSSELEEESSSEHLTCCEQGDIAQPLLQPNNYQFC

Target: human CSF1R ECD (human) (UniProt P07333)
Test: binding test on CSF1R ECD; done previously (WO 2011/140249)

- binding: binds
B3: huAb9 (antibody, human IgG4 S228P, kappa, V domains shown)
VH: QVQLVQSGAEVKKPGSSVKVSCKASGYTFSDFNIHWVRQAPGQGLEWMGYINPYTDVTVYNEKFKGRVTITSDKSTSTAYMELSSLRSEDTAVYYCASYFDGTFDYALDYWGQGTLVTVSS
VL: EIVVTQSPATLSLSPGERATLSCRASESVDNYGLSFMNWFQQKPGQAPRLLIYTASNLESGIPARFSGSGSRTDFTLTISSLEPEDFAVYYCQQSKELPWTFGQGTKVEIKR

- binding: binds
B4: huAb10 (antibody, human IgG4 S228P, kappa, V domains shown)
VH: B3 VH with M48I, V68A, I70L
VL: B3 VL with V4L, F40Y, R72G

- binding: binds
B6: huAb11 (antibody, human IgG4 S228P, kappa, V domains shown)
VH: B3 VH with M48I, V68A, I70L
VL: B3 VL with V4L, F40Y

The next lines start with the binder.

B1: huAb7 (antibody, human IgG4 S228P, kappa, V domains shown)
VH: B3 VH
VL: B3 VL with V4L, F40Y, R72G
- binding: binds

B2: huAb12 (antibody, human IgG4 S228P, kappa, V domains shown)
VH: B3 VH with M48I, V68A, I70L
VL: B3 VL
- binding: binds

B5: huAb8 (antibody, human IgG4 S228P, kappa, V domains shown)
VH: B3 VH
VL: B3 VL with V4L, F40Y
- binding: binds

B7: huAb15 (antibody, human IgG4 S228P, kappa, V domains shown)
VH: QVQLVQSGAEVKKPGSSVKVSCKASGYIFTDYNMHWVRQAPGQGLEWMGEINPNNGVVVYNQKFKGTTTLTVDKSTSTAYMELSSLRSEDTAVYYCTRALYHSNFGWYFDSWGQGTLVTVSS
VL: EIVLTQSPATLSLSPGERATLSCKASQSVDYDGDSHMNWYQQKPGQAPRLLIYTASNLESGIPARFSGSGSGTDFTLTISSLEPEDFAVYYCQQGNEDPWTFGQGTKVEIKR
- binding: binds

B8: huAb13 (antibody, human IgG4 S228P, kappa, V domains shown)
VH: B7 VH with T67R, T68V, L70I
VL: B7 VL
- binding: binds

B9: huAb14 (antibody, human IgG4 S228P, kappa, V domains shown)
VH: B7 VH with T67R, T68V, L70I
VL: B7 VL with E1D, T73A
- binding: binds

B10: huAb16 (antibody, human IgG4 S228P, kappa, V domains shown)
VH: B7 VH
VL: B7 VL with E1D, T73A
- binding: binds
